This is one part of the list.
Legend:
Test in all cases: log2 fold change, soluble protein after heating vs DMSO (PISA); higher = thermal stabilisation; K562 lysate, 10 uM; active = over 0.2 and 3.5 SD of the protein, either way, in both replicates (recomputed)
[1] = compound: NCC(=O)Nc1ccc(-n2nc(C(F)(F)F)cc2-c2ccc3c(ccc4ccccc43)c2)cc1
In short: (§1)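 Dounce homogenisation of K562 pellets in PBS pH 7.4 with 1 mM MgCl2 produced a crude extract, used at 1 mg/mL protein. Exposure to 10 μM compound lasted 30 min, and aliquots were then heated for 3 min across 48°C-58°C, pooled and brought to 0.5% NP-40 at 4°C. The supernatant after 21,000xg for 90 min was quantified by TMTpro 16plex LC-MS/MS with channel sums equalised. Duplicate values are given as log-two fold change in thermal stability relative to solvent controls.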

Amino acid sequences for entries named in this document (tags omitted). A change or cut given only in a name is not applied to a line headed by its entry.
UniProt P30039: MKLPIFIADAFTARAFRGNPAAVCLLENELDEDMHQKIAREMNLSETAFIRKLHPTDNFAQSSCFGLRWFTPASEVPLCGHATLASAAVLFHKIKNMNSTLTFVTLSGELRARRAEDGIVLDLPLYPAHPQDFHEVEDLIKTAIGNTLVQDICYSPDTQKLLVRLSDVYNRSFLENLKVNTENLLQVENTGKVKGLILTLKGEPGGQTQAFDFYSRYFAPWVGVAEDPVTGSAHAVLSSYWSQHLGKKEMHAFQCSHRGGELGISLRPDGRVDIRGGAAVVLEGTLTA
UniProt Q3KNV8: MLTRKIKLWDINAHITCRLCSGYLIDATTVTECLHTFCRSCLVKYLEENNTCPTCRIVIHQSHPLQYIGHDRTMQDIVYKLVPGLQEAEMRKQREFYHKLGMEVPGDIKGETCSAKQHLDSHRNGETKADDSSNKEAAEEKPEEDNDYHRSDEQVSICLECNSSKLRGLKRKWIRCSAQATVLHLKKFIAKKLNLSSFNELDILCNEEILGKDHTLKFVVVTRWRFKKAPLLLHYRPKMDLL
UniProt O43924: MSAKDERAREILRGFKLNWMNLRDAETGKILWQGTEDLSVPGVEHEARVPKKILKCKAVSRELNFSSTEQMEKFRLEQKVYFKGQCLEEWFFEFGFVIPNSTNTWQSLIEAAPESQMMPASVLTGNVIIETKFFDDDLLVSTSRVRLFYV
UniProt P56589: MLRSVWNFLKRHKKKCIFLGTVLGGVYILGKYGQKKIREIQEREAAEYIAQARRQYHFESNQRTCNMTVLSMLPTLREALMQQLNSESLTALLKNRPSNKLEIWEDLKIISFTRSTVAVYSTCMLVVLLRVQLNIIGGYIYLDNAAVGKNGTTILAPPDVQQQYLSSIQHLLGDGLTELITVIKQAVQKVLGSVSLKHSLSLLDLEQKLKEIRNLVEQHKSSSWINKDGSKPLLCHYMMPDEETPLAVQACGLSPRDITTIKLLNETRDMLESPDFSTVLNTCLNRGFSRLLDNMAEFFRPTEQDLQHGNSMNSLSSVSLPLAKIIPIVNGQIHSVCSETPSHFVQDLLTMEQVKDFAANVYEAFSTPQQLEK
UniProt Q9UKK3: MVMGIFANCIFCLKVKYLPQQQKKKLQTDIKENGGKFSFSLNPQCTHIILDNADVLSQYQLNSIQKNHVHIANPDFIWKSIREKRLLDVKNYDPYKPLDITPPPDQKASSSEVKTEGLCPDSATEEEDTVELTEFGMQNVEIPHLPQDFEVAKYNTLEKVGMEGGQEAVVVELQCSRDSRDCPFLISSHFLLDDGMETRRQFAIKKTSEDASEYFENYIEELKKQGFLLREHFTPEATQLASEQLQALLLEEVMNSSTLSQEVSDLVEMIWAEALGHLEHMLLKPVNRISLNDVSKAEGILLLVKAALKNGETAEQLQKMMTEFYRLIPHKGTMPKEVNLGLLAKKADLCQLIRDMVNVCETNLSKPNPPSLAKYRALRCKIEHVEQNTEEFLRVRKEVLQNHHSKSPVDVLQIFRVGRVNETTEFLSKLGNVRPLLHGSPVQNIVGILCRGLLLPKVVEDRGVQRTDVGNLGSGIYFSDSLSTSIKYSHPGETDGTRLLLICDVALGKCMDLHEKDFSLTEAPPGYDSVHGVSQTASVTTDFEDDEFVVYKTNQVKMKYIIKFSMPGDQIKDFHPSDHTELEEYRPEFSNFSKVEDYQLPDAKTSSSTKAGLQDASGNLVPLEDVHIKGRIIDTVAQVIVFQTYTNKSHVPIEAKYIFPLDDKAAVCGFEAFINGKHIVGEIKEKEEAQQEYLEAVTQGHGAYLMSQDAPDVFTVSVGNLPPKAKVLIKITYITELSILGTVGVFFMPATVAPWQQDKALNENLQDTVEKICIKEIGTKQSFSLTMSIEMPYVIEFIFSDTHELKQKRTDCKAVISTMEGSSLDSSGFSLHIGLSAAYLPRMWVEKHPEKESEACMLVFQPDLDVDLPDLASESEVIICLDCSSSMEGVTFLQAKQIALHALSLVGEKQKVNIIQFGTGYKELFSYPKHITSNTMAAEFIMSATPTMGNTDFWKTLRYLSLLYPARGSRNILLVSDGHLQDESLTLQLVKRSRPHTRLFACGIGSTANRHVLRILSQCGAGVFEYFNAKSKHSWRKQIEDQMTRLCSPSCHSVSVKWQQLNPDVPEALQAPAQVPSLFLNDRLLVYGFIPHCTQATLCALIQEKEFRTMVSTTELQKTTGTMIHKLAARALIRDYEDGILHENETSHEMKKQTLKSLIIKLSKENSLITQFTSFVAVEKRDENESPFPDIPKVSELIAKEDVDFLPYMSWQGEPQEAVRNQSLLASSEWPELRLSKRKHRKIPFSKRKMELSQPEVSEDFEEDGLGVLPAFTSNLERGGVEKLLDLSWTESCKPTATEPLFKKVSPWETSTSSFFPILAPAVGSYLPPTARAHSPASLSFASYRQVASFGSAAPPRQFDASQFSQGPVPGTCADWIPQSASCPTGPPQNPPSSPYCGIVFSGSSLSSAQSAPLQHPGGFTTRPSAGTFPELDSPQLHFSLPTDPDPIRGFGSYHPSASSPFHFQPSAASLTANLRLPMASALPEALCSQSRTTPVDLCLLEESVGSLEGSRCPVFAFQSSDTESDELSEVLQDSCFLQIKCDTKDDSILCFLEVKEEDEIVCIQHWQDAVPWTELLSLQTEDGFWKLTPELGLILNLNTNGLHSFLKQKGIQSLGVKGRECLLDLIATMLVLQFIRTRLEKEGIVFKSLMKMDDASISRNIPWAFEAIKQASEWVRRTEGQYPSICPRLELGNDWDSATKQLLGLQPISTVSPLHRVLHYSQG
UniProt Q15154: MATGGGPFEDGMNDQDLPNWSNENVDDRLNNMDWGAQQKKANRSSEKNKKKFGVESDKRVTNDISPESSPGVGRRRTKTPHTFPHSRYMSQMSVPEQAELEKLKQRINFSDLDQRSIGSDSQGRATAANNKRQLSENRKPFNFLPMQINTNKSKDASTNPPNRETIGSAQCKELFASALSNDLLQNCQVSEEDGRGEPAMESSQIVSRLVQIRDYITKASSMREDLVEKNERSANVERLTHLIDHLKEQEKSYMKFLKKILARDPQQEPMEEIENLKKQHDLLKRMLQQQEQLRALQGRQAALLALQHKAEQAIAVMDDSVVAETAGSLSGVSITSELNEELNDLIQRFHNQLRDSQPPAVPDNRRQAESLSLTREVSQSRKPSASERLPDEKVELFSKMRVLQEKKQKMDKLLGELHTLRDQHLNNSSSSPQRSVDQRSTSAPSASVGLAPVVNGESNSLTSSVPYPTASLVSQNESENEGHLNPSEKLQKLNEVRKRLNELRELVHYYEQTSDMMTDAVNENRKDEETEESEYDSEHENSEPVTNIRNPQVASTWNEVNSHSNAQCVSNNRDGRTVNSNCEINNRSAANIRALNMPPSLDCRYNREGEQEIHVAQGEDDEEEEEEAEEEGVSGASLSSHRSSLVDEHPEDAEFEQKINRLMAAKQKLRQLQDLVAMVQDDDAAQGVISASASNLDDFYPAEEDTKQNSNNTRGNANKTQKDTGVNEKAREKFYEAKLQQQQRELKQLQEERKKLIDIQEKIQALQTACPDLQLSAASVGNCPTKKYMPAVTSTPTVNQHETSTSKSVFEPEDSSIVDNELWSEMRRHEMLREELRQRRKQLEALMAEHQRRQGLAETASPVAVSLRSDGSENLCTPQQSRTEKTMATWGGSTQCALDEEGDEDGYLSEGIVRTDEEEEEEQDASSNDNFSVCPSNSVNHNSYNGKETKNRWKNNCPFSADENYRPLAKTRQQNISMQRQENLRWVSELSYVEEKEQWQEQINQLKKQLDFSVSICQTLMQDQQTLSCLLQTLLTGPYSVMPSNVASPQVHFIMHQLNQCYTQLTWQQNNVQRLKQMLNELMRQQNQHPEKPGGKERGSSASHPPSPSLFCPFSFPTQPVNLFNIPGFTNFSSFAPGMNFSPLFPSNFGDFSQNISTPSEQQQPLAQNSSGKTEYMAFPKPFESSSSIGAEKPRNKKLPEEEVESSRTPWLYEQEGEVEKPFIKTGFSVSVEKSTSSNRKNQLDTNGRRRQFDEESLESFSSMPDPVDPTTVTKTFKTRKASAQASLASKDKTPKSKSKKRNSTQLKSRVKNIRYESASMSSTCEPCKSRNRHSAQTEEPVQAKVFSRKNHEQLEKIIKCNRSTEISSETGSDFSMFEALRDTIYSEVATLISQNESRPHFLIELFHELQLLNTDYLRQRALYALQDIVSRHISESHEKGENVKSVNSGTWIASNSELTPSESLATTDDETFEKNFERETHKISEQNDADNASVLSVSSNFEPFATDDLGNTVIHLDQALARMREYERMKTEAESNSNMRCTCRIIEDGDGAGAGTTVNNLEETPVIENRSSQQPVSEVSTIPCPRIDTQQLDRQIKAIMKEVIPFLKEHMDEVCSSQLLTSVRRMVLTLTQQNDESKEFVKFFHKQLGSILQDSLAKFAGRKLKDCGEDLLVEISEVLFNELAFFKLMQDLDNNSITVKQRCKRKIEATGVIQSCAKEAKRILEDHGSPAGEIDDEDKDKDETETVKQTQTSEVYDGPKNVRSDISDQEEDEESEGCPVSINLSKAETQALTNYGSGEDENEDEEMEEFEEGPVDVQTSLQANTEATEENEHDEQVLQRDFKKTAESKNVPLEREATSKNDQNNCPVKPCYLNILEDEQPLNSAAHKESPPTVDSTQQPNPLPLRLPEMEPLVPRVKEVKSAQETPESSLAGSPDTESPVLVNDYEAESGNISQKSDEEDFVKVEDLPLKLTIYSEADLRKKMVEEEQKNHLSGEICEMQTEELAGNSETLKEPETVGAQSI
UniProt Q16877: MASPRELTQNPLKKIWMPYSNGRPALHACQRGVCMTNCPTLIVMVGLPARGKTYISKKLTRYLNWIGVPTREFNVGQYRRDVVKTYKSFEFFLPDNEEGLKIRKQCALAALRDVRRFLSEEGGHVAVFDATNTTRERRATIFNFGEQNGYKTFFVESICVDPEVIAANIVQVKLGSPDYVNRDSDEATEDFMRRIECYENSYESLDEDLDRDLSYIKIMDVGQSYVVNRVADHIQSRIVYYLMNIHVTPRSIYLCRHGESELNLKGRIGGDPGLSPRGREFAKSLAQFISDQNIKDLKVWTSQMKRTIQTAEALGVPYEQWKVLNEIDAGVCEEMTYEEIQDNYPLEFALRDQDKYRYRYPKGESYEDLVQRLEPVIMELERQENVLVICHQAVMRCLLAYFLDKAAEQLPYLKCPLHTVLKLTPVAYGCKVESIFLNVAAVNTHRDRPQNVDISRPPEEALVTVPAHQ

vorinostat = compound: O=C(CCCCCCC(=O)Nc1ccccc1)NO [vorinostat]
In short: as §1

silmitasertib = compound: O=C(O)c1ccc2c(c1)nc(Nc1cccc(Cl)c1)c1ccncc12 [silmitasertib]
In short: as §1

[2] = compound: O=C1NC(=O)C(c2cnc3ccccn23)=C1c1cn2c3c(cc(F)cc13)CN(C(=O)N1CCCCC1)CC2
In short: as §1

entospletinib = compound: c1cn2cc(-c3ccc4cn[nH]c4c3)nc(Nc3ccc(N4CCOCC4)cc3)c2n1 [entospletinib]
In short: as §1

## PBLD (UniProt P30039)
[1]
  log2 fold change: inactive: 0.224
vorinostat
  log2 fold change: inactive: 0.044
silmitasertib
  log2 fold change: inactive: -0.03
[2]
  log2 fold change: inactive: 0.037
entospletinib
  log2 fold change: inactive: 0.004

## PCBP2 (UniProt F8VRH0)
vorinostat
  log2 fold change: active: -0.982
silmitasertib
  log2 fold change: inactive: -0.441
[2]
  log2 fold change: inactive: 0.006

## PCGF3 isoform 2 (UniProt Q3KNV8)
vorinostat
  log2 fold change: inactive: -0.243
silmitasertib
  log2 fold change: inactive: 0.11
[2]
  log2 fold change: inactive: -0.347

## PDE6D (UniProt O43924)
vorinostat
  log2 fold change: inactive: 0.056
silmitasertib
  log2 fold change: inactive: -0.106
entospletinib
  log2 fold change: inactive: -0.127

## PEX3 (UniProt P56589)
[2]
  log2 fold change: inactive: 0.026
entospletinib
  log2 fold change: inactive: -0.086

## PARP4 (UniProt Q9UKK3)
vorinostat
  log2 fold change: inactive: -0.249
silmitasertib
  log2 fold change: inactive: 0.035
[2]
  log2 fold change: inactive: 0.105
entospletinib
  log2 fold change: inactive: 0.091

## PCM1 isoform 5 (UniProt Q15154)
[2]
  log2 fold change: inactive: -0.011
entospletinib
  log2 fold change: inactive: 0.072

## PFKFB4 (UniProt Q16877)
[1]
  log2 fold change: inactive: 0.007
vorinostat
  log2 fold change: active: -0.369
silmitasertib
  log2 fold change: inactive: 0
[2]
  log2 fold change: inactive: -0.031
entospletinib
  log2 fold change: inactive: 0.051

— the supplement of paper PMC10849652
